Values from PubChem BioAssay AID1671195 (Yale University, 2021)

Screen: 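Regulators of LDL receptor activity judged by labelled LDL uptake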 (primary screen)
Cell system: human Huh7 hepatoma cells
Reagent: siRNA pool against human genes, 18 nM
Timing: about 2 to 2.5 days of knockdown, then 8 h LDL uptake
Conditions: DiI-labelled LDL at 30 µg/ml for 8 h, in lipoprotein-deficient serum medium
Measurement: 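Per-cell DiI-LDL intensity by automated imaging; well means scaled to the plate median and given as a robust z-score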
Scale: robust z-score: higher = more LDL uptake after knockdown
Rule for the call: 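a gene counts as active if at least two replicate z-scores exceed ±2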
The deposit covers about 22,000 reagents; shown is an unselected part. About 1,510 of all reagents (6.9%) were called active. 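Active includes knockdowns raising or lowering LDL uptake; positive z-scores mean more uptake, negative mean less.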 A number with no mark means an inactive call.

no.	target	robust z-score, replicate 1	robust z-score, replicate 2	robust z-score, replicate 3
1	LOC440966 (retired record)	-1.1	-0.54	-0.976
2	LOC402028 (retired record)	-0.25	0.489	0.227
3	PRR5L	0.795	0.955	0.552
4	RPS7P3	1.14	0.54	0.241
5	PRRX2	2.46 (active)	5.95	3.31
6	DNMBP	1.32	0.332	2.85
7	GPRASP3	-1.17	-1.18	-0.723
8	MRPL41	0.173	-0.24	0.747
9	SPATC1L	0.547	0.883	0.219
10	LRRC7	0.367	0.246	3.38
11	LOC440763 (retired record)	-1.24	-1.48	-1.32
12	ZNF831	0.821	0.95	1.13
13	MYD88	3.98 (active)	3.56	1.44
14	PPP1R15A	-1.79	-1.59	-1.8
15	RRAD	-0.441	-1.99	-0.873
16	CCDC142	0.496	-0.00804	0.954
17	AFG2B	-0.75	0.909	0.72
18	LOC389390 (retired record)	0.719	0.243	0.8
19	LOC401280 (retired record)	-0.345	-3.06	-0.699

7 entries from above, reformatted.
{"target": "GPRASP3", "robust z-score, replicate 1": -1.17, "robust z-score, replicate 2": -1.18, "robust z-score, replicate 3": -0.723}
{"target": "MRPL41", "robust z-score, replicate 1": 0.173, "robust z-score, replicate 2": -0.24, "robust z-score, replicate 3": 0.747}
{"target": "SPATC1L", "robust z-score, replicate 1": 0.547, "robust z-score, replicate 2": 0.883, "robust z-score, replicate 3": 0.219}
{"target": "LRRC7", "robust z-score, replicate 1": 0.367, "robust z-score, replicate 2": 0.246, "robust z-score, replicate 3": 3.38}
{"target": "LOC440763 (retired record)", "robust z-score, replicate 1": -1.24, "robust z-score, replicate 2": -1.48, "robust z-score, replicate 3": -1.32}
{"target": "ZNF831", "robust z-score, replicate 1": 0.821, "robust z-score, replicate 2": 0.95, "robust z-score, replicate 3": 1.13}
{"target": "MYD88", "robust z-score, replicate 1": "3.98 (active)", "robust z-score, replicate 2": 3.56, "robust z-score, replicate 3": 1.44}

Additional records follow.
no.	target	robust z-score, replicate 1	robust z-score, replicate 2	robust z-score, replicate 3
20	P2RY6	-1.4	-0.89	-1.16
21	RALGAPA2	-0.188	0.0144	0.464
22	KLB	-0.893	-0.897	-0.974
23	MET	0.294	-0.796	-1.2
24	PHKG2	-0.21	0.567	0.895
25	GBP1	-1.34	-1.28	-1.25
26	CCL25	2.29 (active)	2.55	2.41
27	AFG2A	-1.24	-0.48	-0.797
28	VAMP2	-0.0344	-0.00052	-0.142
29	SMG6	-0.693	-1.89	-0.315
30	BIRC3	0.691	-0.0187	0.128
31	KLHDC3	-0.952	-0.825	-0.818
32	NR2E3	-0.72	-0.578	-0.903
33	COL9A2	0.16	0.00954	0.185
34	FGF12	0.154	-0.258	-0.0107
35	ASL	0.477	-0.582	0.693
36	CCDC126	-1.03	-0.909	-1.19
37	STK32B	0.746	-0.421	1.07
38	STK32A	2.17	0.0573	1.48
39	ERICH2	0.21	0.0494	0.341
40	PAICS	1.13	0.121	0.732
41	FAM120C	0.347	1.75	-1.03
42	TNFAIP6	-0.439	-0.337	-0.587
43	LOC390773 (retired record)	1.52	1.03	0.667
44	FOXL1	2.77 (active)	2.72	4
45	DRC11	2.05 (active)	2.16	2.2
46	ADRA2B	-1.71	-1.08	-1.84
